Each structure is given as a SMILES string.

`OO` [hydrogen peroxide]: the “fluorescence of OsteoSense 750 bound to caries lesion after application” value (hydrogen peroxide 38% applied with a syringe, FIG. 18) is listed as “eliminated fluorescence”. In addition, the “fluorescence indicating presence of the bound probe” value (ten minutes after hydrogen peroxide 38%) is on record as “substantially eliminated”. Where the note is “three minutes after hydrogen peroxide 38%”, the “fluorescence of the probe bound to the tooth” value is reported as “substantially reduced”.
